PubChem BioAssay AID1259308, NCATS | 2017

Screen: 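Candidate targets for better recombinant protein yield in mammalian cells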 (primary screen)
Cells: human HEK293 embryonic kidney cells stably expressing firefly luciferase (HEK-CMV-Luc2-Hygro)
Reagents: single siRNA against human genes, 0.8 pmol siRNA per well
Timing: 72 h
Detection: 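Reporter luminescence and viable-cell signal on separate replicate plates, given as percent of non-targeting control and median/MAD z-scores, plus per-cell luciferase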
Scale: total luciferase, z-score: higher = more reporter protein produced
Hit rule: 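Active when the median/MAD z-score for overall luciferase is greater than 3; a gene was taken forward for validation with new siRNAs if at least two of its three siRNAs passed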
Calls: active = raised luciferase; inactive = no rise
Shown is one part, drawn at random, of about 59,000 reagents tested. About 1,510 of them (2.6%) were called active. 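Calls use total luciferase alone and ignore viability, so some active siRNAs may act by altering cell number.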 The numbers tell different reagents against one gene apart. Further read-outs or replicates are left out here.

total luciferase, z-score, by target gene and reagent
SLC6A1: #1 1.27 inactive; #2 -0.224 inactive; #3 -0.616 inactive
TTLL2 (tubulin tyrosine ligase like 2): #1 -0.57 inactive; #2 1.69 inactive; #3 -0.129 inactive
TEAD2 (TEA domain transcription factor 2): #1 0.184 inactive; #2 -0.484 inactive; #3 -0.206 inactive
KAZALD1 (Kazal type serine peptidase inhibitor domain 1): #1 -0.883 inactive; #2 1.77 inactive; #3 -0.667 inactive
HTR3B (5-hydroxytryptamine receptor 3B): #1 0.51 inactive; #2 -0.671 inactive; #3 1.59 inactive
SH2D7 (SH2 domain containing 7): #1 1.45 inactive; #2 -0.919 inactive; #3 0.0347 inactive
EEF1A2 (eukaryotic translation elongation factor 1 alpha 2): #1 1.63 inactive; #2 -0.592 inactive; #3 3.43 active
UBTFL5 (UBTF like 5 (pseudogene)): #1 -0.88 inactive; #2 1.22 inactive; #3 0.551 inactive

2 of these entries, reformatted.
Target gene,reagent,"total luciferase, z-score",Call
HTR3B (5-hydroxytryptamine receptor 3B),3,1.59,inactive
SH2D7 (SH2 domain containing 7),1,1.45,inactive

The listing continues.
total luciferase, z-score, by target gene and reagent
TRIM58 (tripartite motif containing 58): #1 0.832 inactive; #2 -0.366 inactive; #3 -2.55 inactive
RNF150 (ring finger protein 150): #1 1.1 inactive; #2 -0.272 inactive; #3 -0.154 inactive
FAM171A2 (family with sequence similarity 171 member A2): #1 -0.446 inactive; #2 0.447 inactive; #3 -2.02 inactive
LBP (lipopolysaccharide binding protein): #1 -0.402 inactive; #2 1.15 inactive; #3 1.07 inactive
NOTCH1 (notch receptor 1): #1 -1.2 inactive; #2 1.49 inactive; #3 0.0333 inactive
